PubChem BioAssay AID504793 – Drosophila RNAi Screening Center – 2011

- Test: 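Whole-genome screen for parts of the DNA damage checkpoint at G2/M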 (primary screen)
- Cell system: Drosophila S2R+ cells
- Reagent: long dsRNA against Drosophila genes, about 0.25 µg dsRNA per well
- Timing: 4 days of dsRNA, then 4 hours of drug before read-out
- Treatment: doxorubicin 0.5 µM for 4 hours to cause double-strand breaks, in cells also given a low, harmless dose of dsRNA against nbs to sensitise the assay
- Measurement: 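Mitotic index as the number of phospho-histone H3-positive cells in each well following doxorubicin, given as raw counts without normalisation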
- Reading the numbers: mitotic cells: higher = more cells in mitosis, weaker G2 arrest
- Call rule: 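a call needs confirmation in secondary tests, with other dsRNAs and a check of mitotic timing without damage, not just a high primary count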
- Calls: active = confirmed in follow-up tests; inactive = not confirmed
The screen tested about 23,000 reagents; this is a random part of those with a known target gene and a result. In the full data, 62 (0.27%) got an active call. 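Calls come from follow-up tests whose scores are not deposited, so confirmed genes may have low counts here; counts are not normalised per plate.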 Raw values are not corrected between plates. Entries without a mark were called inactive. Reagents against one gene are numbered here.

With knock-down of CG13594 #1 the results were mitotic cells, replicate 1 = 8. Depletion of CG13594 #2 came out at: mitotic cells, replicate 1 = 7. Knock-down of CG33468 came out at: mitotic cells, replicate 1 = 7. Knock-down of l(3)72Dn came out at: mitotic cells, replicate 1 = 6. Knock-down of CG12078 resulted in: mitotic cells, replicate 1 = 6. After knock-down of Rrp46 the results were mitotic cells, replicate 1 = 6.

After knock-down of CG32762 #1 the results were mitotic cells, replicate 1 = 13. Depletion of CG32762 #2 gave: mitotic cells, replicate 1 = 4. Syb #1 showed mitotic cells, replicate 1 = 8. Depletion of Syb #2 resulted in: mitotic cells, replicate 1 = 4. With knock-down of CG15740 #1, the screen gave mitotic cells, replicate 1 = 4. Silencing of CG15740 #2 resulted in: mitotic cells, replicate 1 = 8.

For nenya, the values are mitotic cells, replicate 1 = 3. CG3407 scored mitotic cells, replicate 1 = 6. For CG33290 #1, the values are mitotic cells, replicate 1 = 5. CG33290 #2 gave mitotic cells, replicate 1 = 6. After knock-down of Prx3 #1, the screen gave mitotic cells, replicate 1 = 8. Against Prx3 #2 the deposit lists mitotic cells, replicate 1 = 5.

For Rrp42, the entry reads mitotic cells, replicate 1 = 10. After knock-down of CG7860, the record shows mitotic cells, replicate 1 = 4. After knock-down of CG2818, the record shows mitotic cells, replicate 1 = 1. pan #1 gave mitotic cells, replicate 1 = 4. Silencing of pan #2 resulted in: mitotic cells, replicate 1 = 5. Against pan #3, the values are mitotic cells, replicate 1 = 27.

Pgcl gave mitotic cells, replicate 1 = 15. For scu #1, the entry reads mitotic cells, replicate 1 = 11. scu #2 showed mitotic cells, replicate 1 = 6. Depletion of CG1142 #1 resulted in: mitotic cells, replicate 1 = 1. After knock-down of CG1142 #2 the results were mitotic cells, replicate 1 = 4. CG33340 #1 gave mitotic cells, replicate 1 = 10.

With knock-down of CG33340 #2 the results were mitotic cells, replicate 1 = 4. Adi1 #1 scored mitotic cells, replicate 1 = 10. Adi1 #2 gave mitotic cells, replicate 1 = 8. Silencing of CR11023 #1 resulted in: mitotic cells, replicate 1 = 4. Silencing of CR11023 #2 resulted in: mitotic cells, replicate 1 = 6. For alphaTub85E #1 the deposit lists mitotic cells, replicate 1 = 110.

Depletion of alphaTub85E #2 resulted in: mitotic cells, replicate 1 = 84. Silencing of HUWE1 gave: mitotic cells, replicate 1 = 18. CG31510 scored mitotic cells, replicate 1 = 7. Usp14 #1 showed mitotic cells, replicate 1 = 6. For Usp14 #2, the entry reads mitotic cells, replicate 1 = 8. After knock-down of CG8768, the screen gave mitotic cells, replicate 1 = 3.

Against CG17224 the deposit lists mitotic cells, replicate 1 = 1.
